Patent publication US10828276B2, “Combination therapeutics and methods for the treatment of neurodegenerative and other diseases” (APHIOS CORPORATION, priority 2012, dated 2020)
At least one structure is not confirmed: it was looked up by name or label, or the drawing left a doubt.

Columns and labels:
[1] = system: SH-SY5Y neuroblastoma cells; assay: sAPP-a release from SH-SY5Y cells (6E10 western blot, densitometry); format: cell-based
Protocol: Cells were treated with RA, Bryostatin-1 (10^−9M)+RA, Bryostatin-1 (10^−10M), RA+Bryostatin-1 (10^−10M) for 3 h.

ADAM10 = ADAM10 expression in SH-SY5Y cells; format: cell-based; conditions: single agents
From the text: Therefore, Bryostatin-1 may increase […]-secretase processing through 2 independent mechanisms: (i) activation of PKCs which stimulate[…]secretase; and (ii) increased expression of […]-secretase.

## CC1=C(/C=C/C(C)=C/C=C/C(C)=C/C(=O)O)C(C)(C)CCC1 [retinoic acid]
[1]; 2 μM retinoic acid added, 3 h
  Bryostatin-1 induced sAPP-a formation: increased
[1]; 2 μM retinoic acid alone, p<0.01
  sAPP formation: increased
[1]; 4 μM retinoic acid added, 3 h
  Bryostatin-1 induced sAPP-a formation: increased
[1]; retinoic acid alone, vs control
  generation of sAPP-a by SH-SY5Y cells: increased
[1]; single agents, RA 2 μM, Bryostatin-1 10^−10M, 3 h, p<0.05, p<0.01
  sAPPa recovered from culture medium compared to control: significantly increased
ADAM10
  expression of ADAM10: significantly increase
